# This is one part of the list. Shown are side measurements of this screen, not its main read-out; they come without a call. Most of these compounds were active or inconclusive in the main read-out, so they are no random draw. Words in brackets tell the shape of the fitted curve; partial curves, single points and poor fits give uncertain potencies.
# Test: qHTS Assay to Find Inhibitors of Chronic Active B-Cell Receptor Signaling
# Settings: ABC-DLBCL IkBa-CBG/CBR reporter, luminescence ratio (green luciferase fused to IkBa over red control in TMD8 lymphoma cells), 4 h
# In short: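 Compounds up to 46 uM were incubated four hours with TMD8 cells whose green CBG68 luciferase is fused to IkappaBalpha; red CBR luminescence normalised the signal, and concentration-effect curves were fitted to fusion, red and ratio data.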
# [1] = measured here: CBR red luminescence, cell number
# [2] = measured here: IkBa-CBG green luminescence
smiles,measurement,setting,value
Clc1ccc(CSc2nnc(-c3sccc3-n3cccc3)o2)cc1,AC50,[1],"31.6 µM [rising, single point]"
CCN(CC(=O)Nc1ccc(N2CCOCC2)cc1)CC(=O)NC(C)(C)C,AC50,[1],"11.2 µM [rising, partial curve]"
CCn1cc2nc(SCC(=O)Nc3ccc(OC)c(OC)c3)n(Cc3ccc(OC)cc3)c(=O)c2n1,AC50,[1],"35.5 µM [falling, single point]"
Oc1ccc(Nc2nc(-c3ccccc3F)nc3ccccc23)cc1,AC50,[1],"12.6 µM [falling, partial curve, poor fit]"
N/C(=N\NC(=O)c1ccccc1)c1cc2ccccc2oc1=O,AC50,[1],"7.94 µM [falling, partial curve, poor fit]"
O=S(=O)(NC1=NCCCCC1)c1ccc2sc(NS(=O)(=O)c3ccc4ccccc4c3)nc2c1,AC50,[1],"22.4 µM [rising, single point]"
S=C(NC1CCCCC1)c1ccc2c(c1)OCO2,AC50,[1],"6.31 µM [rising, single point]"
COC(=O)c1c(NC(=O)C2CC=CCC2C(=O)O)sc(C)c1C (stereo not drawn),AC50,[1],"20.6 µM [falling, partial curve, poor fit]"
COc1cccc(C=O)c1OCCCOc1cccc2cccnc12,AC50,[1],"4.47 µM [rising, full curve]"
same,AC50,[2],"11.2 µM [falling, partial curve, poor fit]"
COc1ccc(C2NC(=O)C(C#N)=C(S)N2c2ccc(C)cc2)cc1OC (stereo not drawn),AC50,[1],"15.8 µM [rising, single point]"
same,AC50,[2],"20 µM [falling, single point]"
CCOC(=O)C1CCN(C(=O)COC(=O)CNC(=O)c2ccc(C(C)(C)C)cc2)CC1,AC50,[1],"23.1 µM [falling, partial curve, poor fit]"
O=C(Nc1ccc(C(F)(F)F)cc1)C1CC(=O)N(c2ccc3c(c2)OCCO3)C1 (stereo not drawn),AC50,[1],"20.6 µM [falling, single point]"
CSc1ccccc1OCc1cc(C(=O)N2C[C@H]3CC[C@H]2C3)no1,AC50,[1],"12.6 µM [rising, partial curve, poor fit]"
NCCc1nc(-c2ccccc2)cs1,AC50,[1],"2.51 µM [rising, full curve, poor fit]"
Cc1nc2ccc3nc(NC(=O)c4ccc5c(c4)OCCO5)sc3c2s1,AC50,[1],"0.794 µM [falling, full curve]"
Cc1cc(-c2ccc(N=Nc3c(S(=O)(=O)O)cc4cc(S(=O)(=O)O)cc(N)c4c3O)c(C)c2)ccc1N=Nc1c(S(=O)(=O)O)cc2cc(S(=O)(=O)O)cc(N)c2c1O,AC50,[1],"3.66 µM [falling, full curve]"

# Given with bars between the fields: part of the list above
smiles | measurement | setting | value
Oc1ccc(Nc2nc(-c3ccccc3F)nc3ccccc23)cc1 | AC50 | [1] | 12.6 µM [falling, partial curve, poor fit]
S=C(NC1CCCCC1)c1ccc2c(c1)OCO2 | AC50 | [1] | 6.31 µM [rising, single point]
COc1cccc(C=O)c1OCCCOc1cccc2cccnc12 | AC50 | [2] | 11.2 µM [falling, partial curve, poor fit]
CSc1ccccc1OCc1cc(C(=O)N2C[C@H]3CC[C@H]2C3)no1 | AC50 | [1] | 12.6 µM [rising, partial curve, poor fit]
Cc1nc2ccc3nc(NC(=O)c4ccc5c(c4)OCCO5)sc3c2s1 | AC50 | [1] | 0.794 µM [falling, full curve]

# Reference: PubChem BioAssay AID493014 (National Center for Advancing Translational Sciences (NCATS), 2011)
